Values from PubChem BioAssay AID720505 (Drosophila RNAi Screening Center, 2013)
The deposit covers about 20,000 reagents; below is an unselected part of those with a known target gene and a result. Of all reagents, about 2,100 (10%) are marked active. 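Raw plate signals without normalisation; calls rest on control-based scores that were not deposited; replicate 2 separates called from uncalled poorly.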 Unmarked entries are inactive. Not given: the amount of reagent, the time to read-out.

Assay: 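Knock-downs that reduce calcium influx once internal stores are emptied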 (primary screen)
System: Drosophila S2R+ cells
Reagents: long dsRNA against Drosophila genes
Conditions: thapsigargin (2 µM) in calcium-free buffer to empty internal stores, then 2 mM calcium added back
Detection: 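Stores emptied by 2 µM thapsigargin without calcium, then 2 mM calcium re-added; fluo-4 fluorescence followed by FLIPR in 384-well plates, per-well averaged endpoint, raw; two screen passes, some wells retested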
Scale: calcium signal and retest calcium signal: higher = more calcium entry after store depletion
Hit rule: 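About 1500 genes called as lowering calcium entry, by varying amounts, judged against per-plate control wells with STIM1 as positive and Rho1 as negative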
Calls: active = called as lowering calcium entry; inactive = not called

Depletion of Dop1R2 [DRSC15379] gave: calcium signal, replicate 1 = 157; calcium signal, replicate 2 = 111.
Against CG6712 [DRSC02981], the entry reads calcium signal, replicate 1 = 83.2; calcium signal, replicate 2 = 103; retest calcium signal, replicate 1 = 90.3; retest calcium signal, replicate 2 = 113.
Against CG6712 [DRSC21690] the deposit lists calcium signal, replicate 1 = 174; calcium signal, replicate 2 = 78.
Depletion of CG7367 [DRSC03049] came out at: calcium signal, replicate 1 = 96.1; calcium signal, replicate 2 = 145.
Silencing of Saf6 [DRSC00633] came out at: calcium signal, replicate 1 = 110; calcium signal, replicate 2 = 217.
Against tbrd-2 [DRSC07020], the entry reads calcium signal, replicate 1 = 89.8; calcium signal, replicate 2 = 83.7.
With knock-down of Pino [DRSC00038], the screen gave calcium signal, replicate 1 = 112; calcium signal, replicate 2 = 197.
With knock-down of Pino [DRSC00662] the results were calcium signal, replicate 1 = 144; calcium signal, replicate 2 = 266.
ppk25 [DRSC04973] scored calcium signal, replicate 1 = 109; calcium signal, replicate 2 = 101.
Against CG3857 [DRSC18542] the deposit lists calcium signal, replicate 1 = 82.4; calcium signal, replicate 2 = 78.9.
CG34204 [DRSC03897] showed calcium signal, replicate 1 = 80.3; calcium signal, replicate 2 = 6016.
For pico [DRSC19430], the values are calcium signal, replicate 1 = 76.8; calcium signal, replicate 2 = 120.

A stretch taken from the entries so far, as a working copy:
CG7367 [DRSC03049]: calcium signal, replicate 1 = 96.1; calcium signal, replicate 2 = 145
Saf6 [DRSC00633]: calcium signal, replicate 1 = 110; calcium signal, replicate 2 = 217
